In paper PMC6410177:
These are yes or no findings as the source states them, for the method shown. In cells and extracts the contact can be indirect. Binding can be weak; no strength is given. Where a sequence is shown, tags or fusion partners need not be part of it.

Target: NEDD4-1, Myc-tagged
Test: co-IP

binding | Binder
binds | AMOTL1-AAEY367 (protein, UniProt Q8IY63 1-956) MWRAKLRRGTCEPAVKGSPSACYSPSSPVQVLEDSTYFSPDFQLYSGRHETSALTVEATSSIREKVVEDPLCNFHSPNFLRISEVEMRGSEDAAAGTVLQRLIQEQLRYGTPTENMNLLAIQHQATGSAGPAHPTNNFSSTENLTQEDPQMVYQSARQEPQGQEHQVDNTVMEKQVRSTQPQQNNEELPTYEEAKAQSQFFRGQQQQQQQQGAVGHGYYMAGGTSQKSRTEGRPTVNRANSGQAHKDEALKELKQGHVRSLSERIMQLSLERNGAKQHLPGSGNGKGFKVGGGPSPAQPAGKVLDPRGPPPEYPFKTKQMMSPVSKTQEHGLFYGDQHPGMLHEMVKPYPAPQPVRTDVAVLRYQPAAEYGVTSRPCQLPFPSTMQQHSPMSSQTSSASGPLHSVSLPLPLPMALGAPQPPPAASPSQQLGPDAFAIVERAQQMVEILTEENRVLHQELQGYYDNADKLHKFEKELQRISEAYESLVKSTTKRESLDKAMRNKLEGEIRRLHDFNRDLRDRLETANRQLSSREYEGHEDKAAEGHYASQNKEFLKEKEKLEMELAAVRTASEDHRRHIEILDQALSNAQARVIKLEEELREKQAYVEKVEKLQQALTQLQSACEKREQMERRLRTWLERELDALRTQQKHGNGQPANMPEYNAPALLELVREKEERILALEADMTKWEQKYLEESTIRHFAMNAAATAAAERDTTIINHSRNGSYGESSLEAHIWQEEEEVVQANRRCQDMEYTIKNLHAKIIEKDAMIKVLQQRSRKDAGKTDSSSLRPARSVPSIAAATGTHSRQTSLTSSQLAEEKKEEKTWKGSIGLLLGKEHHEHASAPLLPPPPTSALSSIASTTAASSAHAKTGSKDSSTQTDKSAELFWPSMASLPSRGRLSTTPAHSPVLKHPAAKGTAEKLENSPGHGKSPDHRGRVSSLLHKPEFPDGEMMEVLI
binds | AMOTL1-AAEY310 (protein, UniProt Q8IY63 1-956) MWRAKLRRGTCEPAVKGSPSACYSPSSPVQVLEDSTYFSPDFQLYSGRHETSALTVEATSSIREKVVEDPLCNFHSPNFLRISEVEMRGSEDAAAGTVLQRLIQEQLRYGTPTENMNLLAIQHQATGSAGPAHPTNNFSSTENLTQEDPQMVYQSARQEPQGQEHQVDNTVMEKQVRSTQPQQNNEELPTYEEAKAQSQFFRGQQQQQQQQGAVGHGYYMAGGTSQKSRTEGRPTVNRANSGQAHKDEALKELKQGHVRSLSERIMQLSLERNGAKQHLPGSGNGKGFKVGGGPSPAQPAGKVLDPRGPAAEYPFKTKQMMSPVSKTQEHGLFYGDQHPGMLHEMVKPYPAPQPVRTDVAVLRYQPPPEYGVTSRPCQLPFPSTMQQHSPMSSQTSSASGPLHSVSLPLPLPMALGAPQPPPAASPSQQLGPDAFAIVERAQQMVEILTEENRVLHQELQGYYDNADKLHKFEKELQRISEAYESLVKSTTKRESLDKAMRNKLEGEIRRLHDFNRDLRDRLETANRQLSSREYEGHEDKAAEGHYASQNKEFLKEKEKLEMELAAVRTASEDHRRHIEILDQALSNAQARVIKLEEELREKQAYVEKVEKLQQALTQLQSACEKREQMERRLRTWLERELDALRTQQKHGNGQPANMPEYNAPALLELVREKEERILALEADMTKWEQKYLEESTIRHFAMNAAATAAAERDTTIINHSRNGSYGESSLEAHIWQEEEEVVQANRRCQDMEYTIKNLHAKIIEKDAMIKVLQQRSRKDAGKTDSSSLRPARSVPSIAAATGTHSRQTSLTSSQLAEEKKEEKTWKGSIGLLLGKEHHEHASAPLLPPPPTSALSSIASTTAASSAHAKTGSKDSSTQTDKSAELFWPSMASLPSRGRLSTTPAHSPVLKHPAAKGTAEKLENSPGHGKSPDHRGRVSSLLHKPEFPDGEMMEVLI
binds | angiomotin-like 1 (AMOTL1), Flag-tagged, full length (protein, UniProt Q8IY63 1-956) MWRAKLRRGTCEPAVKGSPSACYSPSSPVQVLEDSTYFSPDFQLYSGRHETSALTVEATSSIREKVVEDPLCNFHSPNFLRISEVEMRGSEDAAAGTVLQRLIQEQLRYGTPTENMNLLAIQHQATGSAGPAHPTNNFSSTENLTQEDPQMVYQSARQEPQGQEHQVDNTVMEKQVRSTQPQQNNEELPTYEEAKAQSQFFRGQQQQQQQQGAVGHGYYMAGGTSQKSRTEGRPTVNRANSGQAHKDEALKELKQGHVRSLSERIMQLSLERNGAKQHLPGSGNGKGFKVGGGPSPAQPAGKVLDPRGPPPEYPFKTKQMMSPVSKTQEHGLFYGDQHPGMLHEMVKPYPAPQPVRTDVAVLRYQPPPEYGVTSRPCQLPFPSTMQQHSPMSSQTSSASGPLHSVSLPLPLPMALGAPQPPPAASPSQQLGPDAFAIVERAQQMVEILTEENRVLHQELQGYYDNADKLHKFEKELQRISEAYESLVKSTTKRESLDKAMRNKLEGEIRRLHDFNRDLRDRLETANRQLSSREYEGHEDKAAEGHYASQNKEFLKEKEKLEMELAAVRTASEDHRRHIEILDQALSNAQARVIKLEEELREKQAYVEKVEKLQQALTQLQSACEKREQMERRLRTWLERELDALRTQQKHGNGQPANMPEYNAPALLELVREKEERILALEADMTKWEQKYLEESTIRHFAMNAAATAAAERDTTIINHSRNGSYGESSLEAHIWQEEEEVVQANRRCQDMEYTIKNLHAKIIEKDAMIKVLQQRSRKDAGKTDSSSLRPARSVPSIAAATGTHSRQTSLTSSQLAEEKKEEKTWKGSIGLLLGKEHHEHASAPLLPPPPTSALSSIASTTAASSAHAKTGSKDSSTQTDKSAELFWPSMASLPSRGRLSTTPAHSPVLKHPAAKGTAEKLENSPGHGKSPDHRGRVSSLLHKPEFPDGEMMEVLI
binds | AMOTL1-AAEY310,367 (double mutant) (protein, UniProt Q8IY63 1-956) MWRAKLRRGTCEPAVKGSPSACYSPSSPVQVLEDSTYFSPDFQLYSGRHETSALTVEATSSIREKVVEDPLCNFHSPNFLRISEVEMRGSEDAAAGTVLQRLIQEQLRYGTPTENMNLLAIQHQATGSAGPAHPTNNFSSTENLTQEDPQMVYQSARQEPQGQEHQVDNTVMEKQVRSTQPQQNNEELPTYEEAKAQSQFFRGQQQQQQQQGAVGHGYYMAGGTSQKSRTEGRPTVNRANSGQAHKDEALKELKQGHVRSLSERIMQLSLERNGAKQHLPGSGNGKGFKVGGGPSPAQPAGKVLDPRGPAAEYPFKTKQMMSPVSKTQEHGLFYGDQHPGMLHEMVKPYPAPQPVRTDVAVLRYQPAAEYGVTSRPCQLPFPSTMQQHSPMSSQTSSASGPLHSVSLPLPLPMALGAPQPPPAASPSQQLGPDAFAIVERAQQMVEILTEENRVLHQELQGYYDNADKLHKFEKELQRISEAYESLVKSTTKRESLDKAMRNKLEGEIRRLHDFNRDLRDRLETANRQLSSREYEGHEDKAAEGHYASQNKEFLKEKEKLEMELAAVRTASEDHRRHIEILDQALSNAQARVIKLEEELREKQAYVEKVEKLQQALTQLQSACEKREQMERRLRTWLERELDALRTQQKHGNGQPANMPEYNAPALLELVREKEERILALEADMTKWEQKYLEESTIRHFAMNAAATAAAERDTTIINHSRNGSYGESSLEAHIWQEEEEVVQANRRCQDMEYTIKNLHAKIIEKDAMIKVLQQRSRKDAGKTDSSSLRPARSVPSIAAATGTHSRQTSLTSSQLAEEKKEEKTWKGSIGLLLGKEHHEHASAPLLPPPPTSALSSIASTTAASSAHAKTGSKDSSTQTDKSAELFWPSMASLPSRGRLSTTPAHSPVLKHPAAKGTAEKLENSPGHGKSPDHRGRVSSLLHKPEFPDGEMMEVLI
